From patent publication US20150111954, “LIN28/LET-7 CRYSTAL STRUCTURES, PURIFICATION PROTOCOLS, AND MOLECULAR PROBES SUITABLE FOR SCREENING ASSAYS AND THERAPEUTICS” (PRESIDENT AND FELLOWS OF HARVARD UNIVERSITY, published 2015)
For part of these data: A weaker result is weaker than the reference pair of the same experiment. For part of these data: Protein sequences can lack the tags named with them. For part of these data: The exact form of at least one protein or probe is not confirmed. For part of these data: Negatives hold for the conditions tested.

Experiments:
Test in all cases: EMSA
[1] = target: T1, Lin28a isolated CSD (Mus musculus) (UniProt Q8K3Y3); conditions: high-affinity binding abolished without CCHCx2; purified recombinant protein; protein details: His6 removed by TEV; label: 5'-32P
T1 sequence (looked up): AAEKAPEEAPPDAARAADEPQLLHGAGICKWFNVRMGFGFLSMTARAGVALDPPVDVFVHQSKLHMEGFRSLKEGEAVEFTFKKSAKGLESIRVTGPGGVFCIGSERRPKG

[2] = target: T2, Lin28a isolated CCHCx2 (Mus musculus) (UniProt Q8K3Y3); conditions: high-affinity binding abolished without CSD; purified recombinant protein; protein details: His6 removed by TEV; label: 5'-32P
T2 sequence (looked up): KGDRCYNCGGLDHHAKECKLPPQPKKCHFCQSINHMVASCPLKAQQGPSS

[3] = target: Lin28a (16-184) with linker deletion longer than 9 residues internal linker deletion of more than 9 residues (Mus musculus) (UniProt Q8K3Y3); conditions: deletion beyond 9 linker residues prevents complex formation; purified recombinant protein; protein details: His6 removed by TEV; label: 5'-32P

“UUAGGGCAGAGAUUUUGCCCACAAGGAGUU [preE-let-7d]”: binds more weakly [1]; binds more weakly [2]; no binding [3].
